# For at least one entry, the source does not settle the construct or the ends of the probe. The comparison behind a weaker result is the experiment's own reference, which may not be listed here. Tags and fusion partners may be left off the protein sequences shown.
# Key:
# [1] = target: T1, TIAR (nucleolysin TIAR, TIAL-1) (human) (UniProt Q01085); test: EMSA; details: EMSA: ~2 fmol probe in 20 ul, 10 mM HEPES pH 7.3, 20 mM KCl, 1 mM MgCl2 (printed Mg2Cl2), 1 mM DTT, 30 ng/ul BSA, 0.01% NP-40, 5% glycerol, room temperature 30 min, commercial protein
# T1 sequence (looked up, limits assumed): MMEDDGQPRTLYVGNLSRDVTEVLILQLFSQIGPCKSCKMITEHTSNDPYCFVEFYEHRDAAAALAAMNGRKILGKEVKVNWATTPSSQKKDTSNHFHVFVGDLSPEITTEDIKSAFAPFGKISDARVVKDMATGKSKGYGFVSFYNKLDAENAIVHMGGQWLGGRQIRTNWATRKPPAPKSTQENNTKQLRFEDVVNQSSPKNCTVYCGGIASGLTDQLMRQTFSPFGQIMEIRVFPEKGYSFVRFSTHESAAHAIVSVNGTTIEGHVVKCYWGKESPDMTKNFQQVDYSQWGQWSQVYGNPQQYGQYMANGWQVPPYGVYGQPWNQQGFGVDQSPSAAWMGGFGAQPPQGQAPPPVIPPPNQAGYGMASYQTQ
# [2] = target: T1, TIAR (nucleolysin TIAR, TIAL-1) (human); test: competition with a labelled probe; details: competes with N6 only slightly, at 10:1; EMSA: ~2 fmol probe in 20 ul, 10 mM HEPES pH 7.3, 20 mM KCl, 1 mM MgCl2 (printed Mg2Cl2), 1 mM DTT, 30 ng/ul BSA, 0.01% NP-40, 5% glycerol, room temperature 30 min; commercial protein; label: 3' biotin (competitor in Fig 7C)
sequence,measurement,setting,value
GAGAGGAUGCCACUGUCUCGAACUACUCUGAAGGCACAGCCACCAGAGCUUUAGGGACAGGGUAUUUUAUC [PHAROH hairpin m2],binding result,"[1]; greatly reduced, two bands, label: 3' biotin",binds more weakly
GAGAGGAUGCCACUGUCUCGAACUACUCUGAAGGCACAGCCACCAGAGCCUUAGGGACAGGGUAUCCUAUC [PHAROH hairpin m4],binding result,"[1]; minimal binding, nearly abolished, label: 3' biotin (competitor in Fig 7C)",binds more weakly
same,binding result,[2],binds more weakly
GAGAGGAUGCCACUGUCUCGAACUAUUUUGAAGGCACAGCCACCAGAGCUUUAGGGACAGGGUAUUUUAUC [PHAROH hairpin m1],binding result,"[1]; slightly reduced, prefers one and two copies, label: 3' biotin",binds more weakly
GAGAGGAUGCCACUGUCUCGAACUACUCUGAAGGCACAGCCACCAGAGCCUUAGGGACAGGGUAUUUUAUC [PHAROH hairpin m3],binding result,"[1]; similar to m2, label: 3' biotin",binds more weakly

# Source: paper PMC8163507, “PHAROH lncRNA regulates Myc translation in hepatocellular carcinoma via sequestering TIAR”
